Results as given in paper PMC10953090.
These are yes or no findings as the source states them, for the method shown. In cells and extracts the contact can be indirect. Some entries that bind do so weakly or less than the wild type.

The chains behind the UniProt entries cited, without tags or fusion partners. Residues count along the entry.
UniProt P07174, residues 30-425: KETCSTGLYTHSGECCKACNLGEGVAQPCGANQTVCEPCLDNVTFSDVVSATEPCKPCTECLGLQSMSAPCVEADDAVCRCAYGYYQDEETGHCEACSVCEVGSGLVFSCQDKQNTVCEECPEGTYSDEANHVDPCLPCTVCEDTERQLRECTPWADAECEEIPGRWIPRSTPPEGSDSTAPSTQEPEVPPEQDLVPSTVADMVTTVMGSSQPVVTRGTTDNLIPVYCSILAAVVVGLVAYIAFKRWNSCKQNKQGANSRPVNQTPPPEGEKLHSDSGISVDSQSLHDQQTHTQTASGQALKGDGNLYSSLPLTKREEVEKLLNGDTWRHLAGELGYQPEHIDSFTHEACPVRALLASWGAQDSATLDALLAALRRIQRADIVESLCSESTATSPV

Target: p75 neurotrophin receptor (rat (endogenous in rat BMSCs)) (UniProt P07174)
Assay: co-IP; rat BMSC lysate in IP lysis buffer; anti-p75NTR, anti-sortilin or anti-rabbit IgG overnight, Protein A/G agarose beads 2 h at 4 °C, four washes, Western blot

B1: sortilin (receptor, UniProt O54861 74-825)
chain: RRGAPAEDQDCGRLPDFIAKLTNNTHQHVFDDLSGSVSLSWVGDSTGVILVLTTFQVPLVIVSFGQSKLYRSEDYGKNFKDITNLINNTFIRTEFGMAIGPENSGKVILTAEVSGGSRGGRVFRSSDFAKNFVQTDLPFHPLTQMMYSPQNSDYLLALSTENGLWVSKNFGEKWEEIHKAVCLAKWGPNNIIFFTTHVNGSCKADLGALELWRTSDLGKTFKTIGVKIYSFGLGGRFLFASVMADKDTTRRIHVSTDQGDTWSMAQLPSVGQEQFYSILAANDDMVFMHVDEPGDTGFGTIFTSDDRGIVYSKSLDRHLYTTTGGETDFTNVTSLRGVYITSTLSEDNSIQSMITFDQGGRWEHLQKPENSKCDATAKNKNECSLHIHASYSISQKLNVPMAPLSEPNAVGIVIAHGSVGDAISVMVPDVYISDDGGYSWAKMLEGPHYYTILDSGGIIVAIEHSNRPINVIKFSTDEGQCWQSYVFSQEPVYFTGLASEPGARSMNISIWGFTESFLTRQWVSYTIDFKDILERNCEENDYTTWLAHSTDPGDYKDGCILGYKEQFLRLRKSSVCQNGRDYVVAKQPSICPCSLEDFLCDFGYFRPENASECVEQPELKGHELEFCLYGKEEHLTTNGYRKIPGDRCQGGMNPAREVKDLKKKCTSNFLNPKKQNSKSSSVPIILAIVGLMLVTVVAGVLIVKKYVCGGRFLVHRYSVLQQHAEADGVEALDTASHAKSGYHDDSDEDLLE
  binding: binds
